{"sequences": {"note": "Amino acid sequences for entries named in this document (tags omitted). A change or cut given only in a name is not applied to a line headed by its entry.", "UniProt P18054": "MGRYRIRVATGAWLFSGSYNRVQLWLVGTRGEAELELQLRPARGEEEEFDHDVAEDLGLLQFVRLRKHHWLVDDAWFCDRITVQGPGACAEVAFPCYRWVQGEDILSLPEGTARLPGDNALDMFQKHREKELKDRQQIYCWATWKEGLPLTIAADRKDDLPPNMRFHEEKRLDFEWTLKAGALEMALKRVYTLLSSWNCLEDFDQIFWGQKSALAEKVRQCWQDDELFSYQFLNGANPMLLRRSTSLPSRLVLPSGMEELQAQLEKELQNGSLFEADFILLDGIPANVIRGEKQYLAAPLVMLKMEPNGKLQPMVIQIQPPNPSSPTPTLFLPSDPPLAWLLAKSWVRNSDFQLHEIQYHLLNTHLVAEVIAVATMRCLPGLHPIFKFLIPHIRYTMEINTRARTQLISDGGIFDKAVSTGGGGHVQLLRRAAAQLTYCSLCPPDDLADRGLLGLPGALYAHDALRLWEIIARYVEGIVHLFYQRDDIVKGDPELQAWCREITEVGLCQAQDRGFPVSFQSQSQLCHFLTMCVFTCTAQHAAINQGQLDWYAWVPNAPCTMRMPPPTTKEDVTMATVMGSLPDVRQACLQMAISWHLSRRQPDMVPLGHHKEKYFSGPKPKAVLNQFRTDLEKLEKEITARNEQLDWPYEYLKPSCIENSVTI"}, "source": "PubChem BioAssay AID1671190", "about": "(National Center for Advancing Translational Sciences (NCATS), 2021)", "note": "“And” between values parts separate entries of the source, which are not always exact repeats. Identical values can stand only once. Hit rate of the full screen: of about 580,000 compounds, about 6,100 (1.1%) were called active. This list was built around the results that the source calls inconclusive (neither active nor inactive); the mix of calls is not that of the screen. The call rests on the fitted dose curve; in most records, active means well fitted inhibition curve with a large enough effect; inconclusive means small, poorly fitted or top-dose-only effect, or another doubt; inactive means no such curve, though single readings can be large or run the other way. Where the call is inconclusive, the potency comes from a doubtful curve fit. A structure can be active in one record and inactive in another. Potency means the concentration at half of the fitted maximal effect."}
{"molecular_target": "Polyunsaturated fatty acid lipoxygenase ALOX12 (Homo sapiens) (UniProt P18054)", "test": "Primary qHTS assay for inhibitors of human arachidonate 12S-lipoxygenase (ALOX12): Round 2", "conditions": "purified 12hLO, xylenol orange hydroperoxide absorbance; series mostly up to 108 µM", "in_short": "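Purified human 12hLO at 150 nM in 25 mM Hepes, 0.01% Triton X-100, pH 7.0, preincubated 15 min at room temperature with compound. Reaction started with 40 uM arachidonic acid, 30 min at room temperature. Hydroperoxide measured by Fe-xylenol orange, 573/405 nm absorbance ratio.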"}
{"smiles": "COCCOC(=O)/C(C#N)=C/c1ccc(O)c(I)c1", "Potency": "inconclusive: 89.1 µM [inhibitor, single point]"}
{"smiles": "CCNC(=S)N(Cc1cccs1)Cc1cc2cc(OCC)ccc2[nH]c1=O", "Potency": "inactive"}
{"smiles": "CCn1c(=O)n(CC)c2cc(N3CCCC3)c(NC(=O)c3ccc(F)cc3)cc21", "Potency": "inactive"}
{"smiles": "CCOC(=O)CNC(=O)CCCCCC(=O)NCC(=O)OCC", "Potency": "inconclusive: 7.94 µM [inhibitor, partial curve, poor fit]"}
{"smiles": "Cc1cc(N2C(=O)C(O)=C(C(=O)c3ccco3)C2c2ccc([N+](=O)[O-])cc2)no1", "note": "(stereo not given)", "Potency": "active: 44.7 µM"}
{"smiles": "COc1ccc(C2C(C(C)=O)=C(O)C(=O)N2c2ccccn2)cc1", "note": "(stereo not given)", "Potency": "inconclusive: 0.224 µM [inhibitor, full curve, poor fit]"}
{"smiles": "Cc1cc(-c2ccc(C)c(S(=O)(=O)Nc3ccccc3F)c2)on1", "Potency": "inactive"}
{"smiles": "Cc1cccc(C)c1OCC(N)C(C)C", "note": "(stereo not given)", "Potency": "inconclusive: 39.8 µM [inhibitor, partial curve, poor fit]"}
{"smiles": "O=C(NCc1ccc(Cl)c(Cl)c1)c1cc(C2CCCCN2C(=O)c2cccs2)on1", "note": "(stereo not given)", "Potency": "inconclusive: 100 µM [inhibitor, single point]"}
{"smiles": "NC(Cc1ccc(O)cc1)C(=O)NN=Cc1ccccc1O", "note": "(stereo not given)", "Potency": "inconclusive: 100 µM [inhibitor, single point]"}
{"smiles": "CCn1c(SCc2ccc(Cl)cc2)nnc1-c1ccccc1", "Potency": "inconclusive: 56.2 µM [inhibitor, full curve, poor fit]"}
{"smiles": "Cn1c(N)c(-c2csc(NC3CC3)n2)c(=O)n(C)c1=O", "Potency": "active: 7.94 µM"}
{"smiles": "Cc1cc(C)n(CCNC(=O)CC2C(=O)NCCN2Cc2ccccc2C(F)(F)F)n1", "note": "(stereo not given)", "Potency": "inconclusive: 100 µM [inhibitor, partial curve, poor fit]"}
{"smiles": "COc1ccc(-c2nc(SCC(=O)c3ccc(Cl)cc3)n[nH]2)cc1", "Potency": "inconclusive: 44.7 µM [inhibitor, partial curve, poor fit]"}
{"smiles": "CNC(=O)COC(=O)c1cc(Cl)ccc1Cl", "Potency": "inconclusive: 20 µM [inhibitor, partial curve, poor fit]"}
{"smiles": "Cn1cc(C(C(=O)O)N2CCN(Cc3ccncc3)CC2)c2ccc(C(=O)O)cc21", "note": "(stereo not given)", "Potency": "inconclusive: 2.24 µM [inhibitor, full curve, poor fit]"}
{"smiles": "Cc1ccc(OCCCCn2cnc3ccccc32)cc1", "Potency": "inactive and inconclusive: 100 µM [inhibitor, partial curve, poor fit]"}
{"smiles": "CN(C)c1ccc(NC(=O)c2ccc3nc[nH]c3c2)cc1", "Potency": "inconclusive: 39.8 µM [inhibitor, partial curve, poor fit]"}
{"smiles": "COc1ccc2c(COC(=O)CNC(=O)c3ccc(C)c(C)c3)cc(=O)oc2c1", "Potency": "inactive"}
{"smiles": "CC(C)CC(=O)NC(=S)NNC(=O)c1ccc([N+](=O)[O-])cc1", "Potency": "inconclusive: 17.8 µM [inhibitor, full curve, poor fit]"}
{"smiles": "CCOC(=O)[C@]12CCCC=C1N(Cc1ccco1)C(=O)[C@H](CC(=O)NCCCCc1ccccc1)C2", "Potency": "inconclusive: 4.47 µM [inhibitor, full curve, poor fit]"}
{"smiles": "Cc1ccc(-n2c(N)c(C(N)=O)sc2=S)c(C)c1", "Potency": "inconclusive: 35.5 µM [inhibitor, partial curve, poor fit]"}
{"smiles": "O=C(O)c1ccccc1OCc1cn2ccccc2n1", "Potency": "inconclusive: 6.31 µM [inhibitor, partial curve, poor fit]"}
{"smiles": "O=C(O)c1cccc(C(=O)O)c1S(=O)Cc1ccccc1", "note": "(stereo not given)", "Potency": "inconclusive: 70.8 µM [inhibitor, partial curve, poor fit]"}
{"smiles": "COc1ccc(C(=O)C(c2ccccc2)N2CCOCC2)cc1", "note": "(stereo not given)", "Potency": "inconclusive: 35.5 µM [inhibitor, partial curve, poor fit]"}
{"smiles": "O=C1CC(c2ccco2)Cc2nc(N3CCc4ccccc4C3)ncc21", "note": "(stereo not given)", "Potency": "inconclusive: 44.7 µM [inhibitor, partial curve, poor fit]"}
{"smiles": "O=C(Nc1ccc(C(=O)N2CCCCC2)cc1)c1nsc2ccccc12", "Potency": "inconclusive: 70.8 µM [inhibitor, partial curve, poor fit]"}
{"smiles": "O=S(=O)(c1ccccc1)c1nc(-c2ccccc2)oc1N1CCOCC1", "Potency": "inactive"}
{"smiles": "COc1cccc(-c2cc(C(=O)NCCCN3CCOCC3)no2)c1", "Potency": "inactive"}
{"smiles": "COC1OCC(O)C(NC(=O)N(C)N=O)C1O", "note": "(stereo not given)", "Potency": "inconclusive: 11.2 µM [inhibitor, full curve, poor fit]"}
{"smiles": "CN(CC1Cc2ccccc2O1)C(=O)c1coc(COc2ccc3c(c2)OCO3)n1", "note": "(stereo not given)", "Potency": "inconclusive: 39.8 µM [inhibitor, partial curve]"}
{"smiles": "Cc1ccc2nc(Cl)c3cc(C(=O)NCCCN4CCCC4)sc3c2c1", "Potency": "inactive"}
{"smiles": "O=C(Cc1c[nH]c2ncc(-c3ccc(F)cc3)cc12)N1CCOCC1", "Potency": "inconclusive: 35.5 µM [inhibitor, partial curve, poor fit]"}
{"smiles": "C#CCOCCOCCOCCNc1nc(N2CCN(C(=O)[C@H](C(C)C)n3cc(CCO)nn3)CC2)nc(N2CCN(C(=O)[C@H](CCCCN)n3cc(CCCC)nn3)CC2)n1", "Potency": "inconclusive: 6.31 µM [inhibitor, full curve, poor fit]"}
{"smiles": "CC(C)(C)c1nc(S(=O)(=O)c2ccc(Cl)cc2)c(N2CCOCC2)o1", "Potency": "inconclusive: 63.1 µM [inhibitor, partial curve, poor fit]"}
{"smiles": "CCn1cnc2sc(C(=O)O)c(C)c2c1=O", "Potency": "inconclusive: 44.7 µM [inhibitor, partial curve, poor fit]"}
{"smiles": "Cc1ccc(C)c(CN2C(=O)c3ccccc3S(=O)(=O)c3ccc(C(=O)Nc4cc(F)ccc4F)cc32)c1", "Potency": "inconclusive: 89.1 µM [inhibitor, partial curve, poor fit]"}
{"smiles": "Fc1ccc(Nc2nc(SCc3cccc(Cl)c3)nc3ccccc23)cc1", "Potency": "inconclusive: 50.1 µM [inhibitor, partial curve, poor fit]"}
{"smiles": "O=C(CCC1CCN(C(=O)c2ccccc2F)CC1)NCC1CCCCC1", "Potency": "inactive"}
{"smiles": "CSc1nc(-c2ccccc2Cl)nc2c1Cc1c(CO)cnc(C)c1O2", "Potency": "inconclusive: 89.1 µM [inhibitor, partial curve, poor fit]"}
{"smiles": "Cc1ccc(S(=O)(=O)N(C)C2CCOc3ccccc32)cc1", "note": "(stereo not given)", "Potency": "inactive"}
{"smiles": "CCNC(=S)NNC(=O)c1ccc(C)cc1", "Potency": "inactive"}
{"smiles": "COCc1cc(C[C@@H]2C[C@H](NCc3cccnc3)C2(C)C)no1", "Potency": "inconclusive: 126 µM [inhibitor, partial curve, poor fit]"}
{"smiles": "CCc1[nH]nc2c1C(c1ccc(Br)s1)C(C#N)=C(N)O2", "note": "(stereo not given)", "Potency": "inconclusive: 22.4 µM [inhibitor, partial curve, poor fit]"}
{"smiles": "Cc1ccc(C2CC(=O)N3CN(c4ccc(Br)cc4)CSC3=C2C#N)o1", "note": "(stereo not given)", "Potency": "inconclusive: 2.82 µM [inhibitor, partial curve, poor fit]"}
{"smiles": "O=S(=O)(NCc1ccc(Cl)cc1)c1ccc(Br)cc1C1CC[C@@H](O)C1", "note": "(stereo not given in full)", "Potency": "inconclusive: 89.1 µM [inhibitor, single point]"}
{"smiles": "CCOC(=O)c1c(NC(=O)CN(C)C2CCN(C)CC2)sc(C(=O)Nc2ccccc2)c1C", "Potency": "inconclusive: 0.316 µM [inhibitor, full curve, poor fit]"}
{"smiles": "O=C(CN1C(=O)c2ccccc2S1(=O)=O)c1ccc(Cl)cc1Cl", "Potency": "active: 8.91 µM"}
{"smiles": "O=C(O)C1CCc2sc3[nH]c(=S)n(-c4ccccc4)c(=O)c3c21", "note": "(stereo not given)", "Potency": "inconclusive: 89.1 µM [inhibitor, partial curve, poor fit]"}
{"smiles": "O=C(NC(=S)NCCc1ccccc1)c1ccco1", "Potency": "inactive"}
{"smiles": "c1ccc(OCCN2CCNCC2)cc1", "Potency": "inconclusive: 44.7 µM [inhibitor, partial curve]"}
{"smiles": "Cc1cc(C(F)(F)F)nc(SCC(=O)O)n1", "Potency": "inconclusive: 63.1 µM [inhibitor, partial curve, poor fit]"}
{"smiles": "CCc1cc(-c2n[nH]c(C)c2-c2ccccc2Cl)c(O)cc1OC", "Potency": "active: 39.8 µM"}
{"smiles": "CCOc1ccc(-c2ccnc(N3CCOC(CN)C3)n2)cc1C(=O)O", "note": "(stereo not given)", "Potency": "inconclusive: 12.6 µM [inhibitor, full curve, poor fit]"}
{"smiles": "Cc1ccc(C(=O)O)cc1NC(=O)C(C)Oc1ccc(C(C)(C)C)cc1", "note": "(stereo not given)", "Potency": "inactive"}
{"smiles": "O=C(COc1ccccc1N1C(=O)C2C3C=CC(C3)C2C1=O)c1ccccc1", "note": "(stereo not given)", "Potency": "inconclusive: 126 µM [inhibitor, single point]"}
{"smiles": "NC(=O)CSc1oc(-c2ccco2)nc1S(=O)(=O)c1ccccc1", "Potency": "inconclusive: 39.8 µM [inhibitor, partial curve, poor fit]"}
{"smiles": "Cc1cc(NC(=O)c2sccc2C)n(-c2cccc(Cl)c2)n1", "Potency": "inconclusive: 112 µM [inhibitor, single point]"}
{"smiles": "Cc1cc(S(=O)(=O)N(Cc2ccccn2)Cc2ccco2)ccc1-n1cnnn1", "Potency": "inactive"}
{"smiles": "COC(=O)c1cccc(NC(=O)Cc2cc(C(C)=O)ccc2OC)c1", "Potency": "inconclusive: 56.2 µM [inhibitor, single point]"}
{"smiles": "CCOC(=O)C1=C(C)NC(=S)N(C(C)=O)C1c1ccc(Cl)cc1", "note": "(stereo not given)", "Potency": "inconclusive: 100 µM [inhibitor, partial curve, poor fit]"}
{"smiles": "CC(C)Cn1c(=O)c2c(nc3n2CCCN3CCc2ccccc2)n(C)c1=O", "Potency": "inactive"}
{"smiles": "CN1CCN(c2nc(-c3cn(CCC#N)c4ccccc34)cs2)CC1", "Potency": "inconclusive: 35.5 µM [inhibitor, partial curve, poor fit]"}
{"smiles": "O=c1oc2ccccc2c(NC2CCCC2)c1NS(=O)(=O)c1ccc(F)c(F)c1", "Potency": "inactive"}
{"smiles": "CCCOC(=O)c1ccc(Oc2coc3cc(O)ccc3c2=O)cc1", "Potency": "inactive"}
